The values below come from PubChem BioAssay AID2685 (National Center for Advancing Translational Sciences (NCATS), 2010).

Each structure is given as a SMILES string. Where “and” joins values, the source holds several entries; their conditions need not be identical. Equal entries are not always repeated. The list shows a part of the results. These are further read-outs of the screen, such as a control signal, another cell line or another target. No call is given for them. Most of these compounds were active or inconclusive in the main read-out, so they are no random draw. The note in brackets gives the kind of curve behind each potency; many fits are weak. Where a SMILES comes first, the peptide text is derived from it. The star is where a group is joined. Cbz = O=C(OCc1ccccc1)*

This experiment in a line: qHTS Assay for Lipid Storage Modulators in Drosophila S3 Cells.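 As to cell number change: cells counted by Cell Tracker Red CMTPX staining in the red channel.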 The following applies: BODIPY lipid droplet fluorescence, 18-24 h; for cell number change: measured here: cell count max response, cells fed with added oleic acid. A digest of the protocol:
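Drosophila S3 cells loaded with oleic acid (400 uM, as added) and compounds at several concentrations; lipid droplets imaged by 488-nm laser-scanning cytometry, 500–530 nm intensity and object ratio to cell channel. Percent activity normalized to 20 uM Triacsin C.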
Background: qHTS replaces the single test concentration by a dilution series.

Where [1] appears, read: measured here: lipid fluorescence (Fed channel) AC50, cells fed with added oleic acid.
[2] abbreviates: measured here: cell number channel AC50, cells fed with added oleic acid.

`CCN(CC)C(=O)CSc1nc2cc(OC)c(OC)cc2c(=O)n1Cc1ccc(Cl)cc1`: the cell number change was 2.7%. For the same compound, the AC50 (as a rule, the concentration giving half of the maximal activity seen) under setting [1] was 2.06 µM [falling, partial curve].
On to `CCOC(=O)c1cnc(SCC)[nH]c1=O`, for which the cell number change is 1.29% and -24.5%. Further, the AC50 under setting [2] is 1.16 µM [falling, full curve, poor fit]. For the same compound, the AC50 under setting [1] is 6.51 µM [falling, single point] and 4.11 µM [falling, partial curve, poor fit].
Consider `CC(C)c1nc2sc3c(SCC(=O)NCc4ccco4)ncnc3c2c2c1CCC2`, for which the cell number change came out at 32.2%. In addition, under setting [2], the AC50 is 6.51 µM [rising, full curve, poor fit]. Besides, the half-maximal activity concentration (AC50) under setting [1] was 4.11 µM [rising, single point].
`Cc1cc(Cl)c2ccccc2n1`: the cell number change was 61.3%. The half-maximal activity concentration (AC50) under setting [2] was 3.66 µM [falling, partial curve]. Moreover, the AC50 under setting [1] was 1.84 µM [rising, partial curve, poor fit].
Take `NNC(=O)c1oc2ccccc2c1-n1cccc1`: the cell number change was determined as 3.19%.
As for `O=C1C=C(Nc2ccc(F)cc2)c2ccccc2C1=O`, the cell number change was -10.5%. In addition, the AC50 under setting [1] was 29.1 µM [falling, partial curve, poor fit].
As for `C=CCn1c(C)nnc1SCC(=O)Nc1nccs1`, the cell number change is -11%.
As to `N#CC(C#N)=Cc1cccn1-c1ccc(S(N)(=O)=O)cc1`, the cell number change worked out at 60.4%. For the same compound, the concentration at half-maximal activity (AC50) under setting [2] is 6.51 µM [rising, partial curve]. Also, under setting [1], the half-maximal activity concentration (AC50) is 23.1 µM [rising, partial curve, poor fit].
Regarding `CC(NC(=O)c1ccccc1)C(=O)NC1CCCc2ccccc21` (stereo unspecified), the cell number change came to 6.5%.
Consider `CCOc1ccc(S(=O)(=O)N2CCN(C(=O)c3oc4ccc(OC)cc4c3C)CC2)cc1`, for which the cell number change was -31.9%. In addition, under setting [2], the half-maximal activity concentration (AC50) is 32.6 µM [falling, single point].
In the case of `CCc1ccc(-c2nc(CS(=O)CC(=O)NCc3ccc4c(c3)OCO4)c(C)o2)cc1` (stereo unspecified), the cell number change came to 0.57%. Under setting [1], the AC50 was 10.3 µM [rising, partial curve].
For the compound `CCc1ccc(N(C)S(=O)(=O)c2ccc3[nH]cc(C(=O)NCCN4CCOCC4)c(=O)c3c2)cc1`, the cell number change is -58.1%. The AC50 under setting [2] was 32.6 µM [falling, single point]. For the same compound, the concentration at half-maximal activity (AC50) under setting [1] was 2.91 µM [falling, partial curve].
Consider `COc1ccc(CC(=O)Nc2nc3ccc(F)cc3s2)cc1S(=O)(=O)N1CCOCC1`, for which the AC50 was 6.51 µM [rising, single point] under setting [2] and 6.51 µM [rising, single point] under setting [1].
Turning to `CCOC(=O)Cn1c(=NC(=O)c2ccc([N+](=O)[O-])s2)sc2ccccc21`, the cell number change stood at 1.99%.
On to `COc1ccccc1-c1nnc(SCC(=O)Nc2ccccc2)o1`, for which the cell number change is 64.2%. For the same compound, under setting [2], the AC50 is 4.61 µM [rising, full curve]. In addition, the half-maximal activity concentration (AC50) under setting [1] was 4.11 µM [rising, full curve].
`COC(=O)CN1C(=O)N/C(=C/c2ccc(OC)c(C)c2OC)C1=O`: the cell number change is -8.61%.
As for `COc1ccc(-n2c(SCC(=O)Nc3ccc(NC(C)=O)cc3)nc3ccccc3c2=O)cc1`, the cell number change was -3.89%. Under setting [1], the AC50 was 0.146 µM [rising, full curve, poor fit].
In the case of `CC(=O)N(Cc1ccccc1)Cc1nc2sc(C)c(C)c2c(=O)[nH]1`, the cell number change worked out at 12%. In addition, the AC50 under setting [1] was 1.03 µM [falling, partial curve].
Turning to `O=C(c1ccco1)N1CCN(CC(=O)N(C2CCCCC2)C2CCS(=O)(=O)C2)CC1` (stereo unspecified), the cell number change is -16%. For the same compound, the AC50 under setting [1] was 29.1 µM [falling, single point].
For `NS(=O)(=O)c1ccc(NC(=O)/C=C/c2ccc3c(c2)OCO3)cc1`, the cell number change amounted to 15.7%. In addition, the concentration at half-maximal activity (AC50) under setting [2] was 6.51 µM [rising, single point].
On to `Cc1ccc(S(=O)(=O)N2CCN(C(=S)NCCc3ccccc3)CC2)cc1`, for which the cell number change came to 52.5%. Under setting [2], the AC50 is 6.51 µM [rising, partial curve].
For the compound `COc1ccc(OCc2nnc(SCC(=O)Nc3cccc(Cl)c3)o2)cc1`, the cell number change turned out to be 25.6%.
Turning to `CC1CN(S(=O)(=O)c2cccc(C(=O)OC(C)C(=O)NC3CCCCC3C)c2)CC(C)O1` (stereo unspecified), the cell number change stood at 25.4%. Moreover, the concentration at half-maximal activity (AC50) under setting [1] is 3.26 µM [rising, partial curve].
Take `Cc1ccc(/C=N/Nc2ncc(Cl)cc2Cl)s1`: the cell number change is 16.7%. Moreover, the half-maximal activity concentration (AC50) under setting [1] was 6.51 µM [rising, single point].
Regarding `Cc1ccc(S(=O)(=O)N2CCOCC2)cc1C(=O)OC(C)C(=O)c1ccccc1` (stereo unspecified), the cell number change was 98%. Moreover, the AC50 under setting [2] was 11.6 µM [rising, partial curve].
As for `COc1cc(C2N=C(c3ccccc3)NO2)cc(Br)c1O` (stereo unspecified), the half-maximal activity concentration (AC50) under setting [1] is 0.58 µM [falling, single point].
For `COC(=O)/C(=C\C=C\c1ccccc1)NC(=O)c1ccccc1`, the cell number change is -10.1%.
For the compound `O=C(O)CSc1nnc(COc2ccc([N+](=O)[O-])cc2)n1-c1ccccc1`, the cell number change is -51%. Besides, the AC50 under setting [2] was 1.3 µM [falling, full curve]. Further, the AC50 under setting [1] is 23.1 µM [falling, partial curve, poor fit].
Turning to `CCCCn1nnnc1NCc1cccs1`, the cell number change was -46.6%. Also, the AC50 under setting [2] was 1.16 µM [falling, partial curve, poor fit].
Regarding `C=CCn1c(SCC(=O)Nc2ccccc2OC)nc2c([nH]c3ccccc32)c1=O`, the cell number change stood at 22.3%. Besides, the half-maximal activity concentration (AC50) under setting [2] is 0.0103 µM [rising, full curve, poor fit].
Regarding `O=C(O)c1ccc2c(c1)C(=O)N(c1ccc(Nc3ccccc3)cc1)C2=O`, the cell number change turned out to be 14.2%. Also, under setting [1], the AC50 was 1.16 µM [rising, full curve, poor fit].
Turning to `CC(=O)Nc1ccc(/C=C2\Sc3ccccc3C2=O)cc1`, the cell number change is 22.2%. For the same compound, the half-maximal activity concentration (AC50) under setting [1] is 18.4 µM [rising, partial curve, poor fit].
With `COC(=O)c1oc2ccccc2c1NC(=O)c1ccccc1O`, the cell number change was -25.5%. The half-maximal activity concentration (AC50) under setting [1] is 0.651 µM [falling, full curve, poor fit].
`Cc1ccc(C2CC(=O)c3cnc(N4CCc5ccccc5C4)nc3C2)cc1` (stereo unspecified): the cell number change was found to be 1.55%. The concentration at half-maximal activity (AC50) under setting [1] is 0.058 µM [falling, full curve, poor fit].
Turning to `CCOC(=O)c1cnn(-c2cc(C)nc3c(-c4ccccc4)cnn23)c1N`, the cell number change was 11.8%.
For `Cc1ccc2nsnc2c1N`, the cell number change was -28%. The AC50 under setting [2] was 0.00651 µM [falling, full curve, poor fit].
As for `Cc1ccc(/C=C/C(=O)OCC(=O)NC(C)C)o1`, the cell number change is -26%. Further, under setting [1], the half-maximal activity concentration (AC50) was 1.3 µM [falling, full curve, poor fit].
In the case of `O=C(Nc1ccc(N2CCOCC2)cc1)c1ccc(Br)o1`, the cell number change is -25.6%.
Regarding `CC(C)C(NC(=O)C(Cc1ccccc1)NC(=O)OCc1ccccc1)C(=O)O` (stereo not drawn) (Cbz-Phe-Val-OH; configuration not given here), the cell number change stood at 17.6%. Besides, under setting [1], the half-maximal activity concentration (AC50) was 13 µM [rising, single point].
Turning to `COC(=O)c1ccc(COc2ccc(C(C)(C)C)cc2)o1`, the cell number change was 45.4%. Besides, the concentration at half-maximal activity (AC50) under setting [2] was 13 µM [rising, partial curve, poor fit]. Under setting [1], the AC50 was 14.6 µM [rising, partial curve].
Consider `CCCCSc1nc2sc3c(c2c(=O)[nH]1)CCC3`, for which the AC50 by setting is: under setting [2], 1.64 µM [falling, partial curve]; under setting [1], 0.411 µM [falling, partial curve].
Consider `CN(C)c1ccc(/C=N/NC(=O)c2ccc3c(c2)OCO3)cc1`, for which the cell number change came to 70.3%. The AC50 under setting [2] is 29.1 µM [rising, single point]. In addition, under setting [1], the AC50 is 29.1 µM [rising, single point].
As to `CC(=O)C1=C(C)N(c2ccccc2)C(=O)C1(NS(=O)(=O)c1ccc(N)cc1)C(F)(F)F` (stereo unspecified), the cell number change is -18.1%. In addition, under setting [1], the AC50 was 0.103 µM [falling, full curve, poor fit].
In the case of `O=C(C1=C(O)C(=O)N(CCN2CCOCC2)C1c1cccnc1)c1cc2ccccc2o1` (stereo unspecified), the cell number change is -4.27%. In addition, the AC50 under setting [1] was 6.51 µM [falling, single point].
For `NC(=O)COC(=O)CNC(=O)c1cc(Cl)cc([N+](=O)[O-])c1`, the cell number change is -34.7%. For the same compound, the AC50 under setting [2] was 0.00517 µM [falling, full curve, poor fit]. In addition, the concentration at half-maximal activity (AC50) under setting [1] was 0.00651 µM [falling, full curve, poor fit].
On to `Cc1ccc(NS(=O)(=O)c2ccc(CCC(=O)NCCO)cc2)cc1`, for which the cell number change came to 17.5%. Besides, the AC50 under setting [1] was 18.4 µM [falling, partial curve].
Consider `Cc1cccc(C)c1OCc1cc(C(=O)NCC2CCCCC2)no1`, for which the cell number change is -8.78%.
Consider `O=C1CC(c2ccc(O)cc2)Oc2ccccc21` (stereo unspecified), for which the cell number change was 26%. For the same compound, the half-maximal activity concentration (AC50) under setting [1] was 29.1 µM [rising, single point].
Take `Cc1cc2c(c(=O)n1C)C(C(C)C)C(C#N)=C(N)O2` (stereo unspecified): the cell number change was determined as 18.8%. For the same compound, the AC50 under setting [1] is 0.651 µM [falling, single point].
Consider `O=C(NCCCCc1ccccc1)c1cc([N+](=O)[O-])cc([N+](=O)[O-])c1`, for which the cell number change was -4.91%.
Consider `CC1(C)CC(CCC(=O)NC(=S)Nc2ccccc2Cl)C(=O)O1` (stereo unspecified), for which the cell number change was found to be 23.9%. The AC50 under setting [2] was 0.146 µM [rising, full curve, poor fit].
Regarding `Clc1ccc(-c2cc(C3CCNCC3)[nH]n2)cc1`, under setting [1], the half-maximal activity concentration (AC50) is 25.9 µM [rising, partial curve].
For `Cc1ccc(-n2c(=O)cc(N3CCN(Cc4ccccc4)CC3)[nH]c2=O)cc1`, the cell number change was -29.8%. The AC50 under setting [1] is 20.6 µM [falling, single point].
Regarding `Cc1cccc2cc3cccc(C)c3nc12`, the cell number change was -24.2%. Moreover, under setting [1], the half-maximal activity concentration (AC50) is 1.64 µM [falling, full curve].
For `CC(=O)Nc1ccc(/C(C)=N/NC(=O)C2CC2c2ccccc2)cc1` (stereo unspecified), the cell number change amounted to 32.7%. Under setting [2], the AC50 is 25.9 µM [rising, single point]. Moreover, the AC50 under setting [1] was 0.411 µM [rising, partial curve].
As to `CCOc1ccc(S(=O)(=O)N(CC)CC(=O)NCc2cccnc2)cc1C`, the cell number change stood at 20.1%. Moreover, the AC50 under setting [1] is 1.46 µM [rising, partial curve].
As for `CSc1nc(C)cc(-n2cc(F)c(=O)[nH]c2=O)n1`, the cell number change stood at 0.881%. Besides, the AC50 under setting [1] is 3.66 µM [falling, single point].
As for `CCn1cc(C(=O)NCCCN2CCCC(C)C2)c(=O)c2cc(S(=O)(=O)N3CCOCC3)ccc21` (stereo unspecified), the cell number change was determined as 16.5%. The concentration at half-maximal activity (AC50) under setting [1] was 29.1 µM [rising, single point].
On to `Cc1cccc(C)c1OCC(=O)Nn1c(C)nc2ccccc2c1=O`, for which the cell number change was 17.5%. The AC50 under setting [1] is 1.3 µM [rising, full curve].
